Experimental data taken from patent publication US12503498B2 (Genzyme Corporation, priority 2012, dated 2025).

Assay: peptide synthesis
Conditions: late stage modification step; for final HPLC purity: reversed-phase HPLC

Substance	step yield [%]	final HPLC purity [%]
Aminooxy-Cys-MC-VC-PABC-MMAE	62	>96
Aminooxy-Cys-MC-VC-PABC-PEG8-Dol10	46	>96
